Here are results for five molecules from patent US20240034762A1 (YALE UNIVERSITY, published 2024).

Assay [1] has as its target T1, soluble extracellular domain of human α-Klotho (aa 1-980) fused to a 6xHis tag (human) (UniProt Q9UEF7).
T1 sequence: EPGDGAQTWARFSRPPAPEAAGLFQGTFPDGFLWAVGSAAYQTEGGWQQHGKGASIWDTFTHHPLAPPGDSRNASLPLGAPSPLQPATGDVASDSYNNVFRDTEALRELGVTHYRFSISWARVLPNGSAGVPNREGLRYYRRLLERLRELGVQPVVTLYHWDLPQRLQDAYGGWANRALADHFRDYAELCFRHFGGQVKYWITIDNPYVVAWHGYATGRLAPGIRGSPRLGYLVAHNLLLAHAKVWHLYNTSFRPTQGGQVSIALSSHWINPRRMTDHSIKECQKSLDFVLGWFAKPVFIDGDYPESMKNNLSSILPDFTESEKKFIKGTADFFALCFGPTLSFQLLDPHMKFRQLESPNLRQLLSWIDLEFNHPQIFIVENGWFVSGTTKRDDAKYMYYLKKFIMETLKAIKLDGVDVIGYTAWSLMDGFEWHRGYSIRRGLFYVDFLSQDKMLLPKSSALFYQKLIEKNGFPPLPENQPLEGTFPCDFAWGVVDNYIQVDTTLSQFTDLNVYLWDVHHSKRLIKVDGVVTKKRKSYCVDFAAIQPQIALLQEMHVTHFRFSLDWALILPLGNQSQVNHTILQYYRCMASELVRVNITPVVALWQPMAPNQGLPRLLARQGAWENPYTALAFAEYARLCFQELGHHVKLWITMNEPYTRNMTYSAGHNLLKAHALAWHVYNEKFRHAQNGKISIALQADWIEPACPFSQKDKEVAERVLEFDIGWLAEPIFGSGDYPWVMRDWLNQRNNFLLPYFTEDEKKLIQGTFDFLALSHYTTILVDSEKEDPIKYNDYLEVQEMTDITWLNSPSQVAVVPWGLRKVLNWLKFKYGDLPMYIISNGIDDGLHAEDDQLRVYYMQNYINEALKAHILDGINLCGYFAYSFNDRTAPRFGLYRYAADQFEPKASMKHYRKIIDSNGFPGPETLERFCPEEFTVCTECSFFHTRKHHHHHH
Nature of the assay: BLI sensorgrams; Flag-tagged FGF23 captured by anti-Flag antibody on anti-mouse-Fc biosensor, dipped into sKLA at 6.25-200 nM.

The target in assay [2] is T1, soluble extracellular domain of human α-Klotho (aa 1-980) fused to a 6xHis tag (human). As to the kind of experiment: BLI; figure legend.
The target of assay [3] is T2, α-Klotho fused to an N-terminal (extracellular) HaloTag on L6 cells (Homo sapiens (Human)) (UniProt Q9UEF7).
T2 sequence (chain, HaloTag labeled with Alexa488 HaloTag ligand): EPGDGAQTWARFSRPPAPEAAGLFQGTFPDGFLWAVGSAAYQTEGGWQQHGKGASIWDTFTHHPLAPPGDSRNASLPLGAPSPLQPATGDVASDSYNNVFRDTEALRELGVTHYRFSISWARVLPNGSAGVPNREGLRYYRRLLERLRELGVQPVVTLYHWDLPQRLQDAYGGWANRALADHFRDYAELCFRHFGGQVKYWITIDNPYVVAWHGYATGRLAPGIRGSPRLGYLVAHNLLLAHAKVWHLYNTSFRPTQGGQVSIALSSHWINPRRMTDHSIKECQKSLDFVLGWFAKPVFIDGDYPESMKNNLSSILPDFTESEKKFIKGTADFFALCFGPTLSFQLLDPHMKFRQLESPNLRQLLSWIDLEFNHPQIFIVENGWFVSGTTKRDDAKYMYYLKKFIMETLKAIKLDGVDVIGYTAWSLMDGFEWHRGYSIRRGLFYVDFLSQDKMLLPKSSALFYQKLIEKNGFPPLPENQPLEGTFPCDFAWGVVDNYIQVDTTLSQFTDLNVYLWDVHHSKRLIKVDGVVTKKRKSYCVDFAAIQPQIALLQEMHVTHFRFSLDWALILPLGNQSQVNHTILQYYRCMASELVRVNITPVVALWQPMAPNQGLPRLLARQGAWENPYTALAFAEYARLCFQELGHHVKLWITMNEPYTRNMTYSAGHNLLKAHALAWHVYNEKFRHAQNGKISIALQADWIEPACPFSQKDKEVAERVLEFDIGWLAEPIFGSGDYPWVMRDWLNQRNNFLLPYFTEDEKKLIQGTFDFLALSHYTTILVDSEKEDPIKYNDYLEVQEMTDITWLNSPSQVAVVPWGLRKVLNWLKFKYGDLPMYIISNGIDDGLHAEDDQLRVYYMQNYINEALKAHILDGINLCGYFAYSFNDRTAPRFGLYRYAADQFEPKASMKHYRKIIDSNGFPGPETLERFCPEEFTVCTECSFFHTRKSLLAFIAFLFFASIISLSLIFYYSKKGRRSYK
As to the kind of experiment: chimeric receptor activation and TIRFM single-molecule imaging on L6 cells.

Residue numbers refer to the chain shown, from its start. Names may count otherwise. No constants are given. Whether binding was seen depends on the method and setting. Some entries that bind do so weakly or less than the wild type. Sequences can lack the tags named with a protein.

B1: FLAG-tagged human FGF23 D188A mutant expressed in Expi293F cells (ligand)
chain: DYKDDDDKYPNASPLLGSSWGGLIHLYTATARNSYHLQIHKNGHVDGAPHQTIYSALMIRSEDAGFVVITGVMSRRYLCMDFRGNIFGSHYFDPENCRFQHQTLENGYDVYHSPQYHFLVSLGAAKAAFLPGMNPPPYSQFLSRRNEIPLIHFNTPIPRQHTQSAEDDSERAPLNVLKPRARMTPAPASCSQELPSAEDNSPMASDPLGVVRGGRVNTHAGGTGPEGCRPFAKFI
For the molecule B1, the binding entry in assay [1] was “binds”.

B2: FLAG-tagged human FGF23 C206S/C244S mutant expressed in Expi293F cells (ligand)
chain: B1 chain with A172D, C190S, C228S
modifications: O-linked glycosylation (sites not given)
notes: also called FGF23-CS; mFGF23-CS
Take B2: the binding result in assay [1] and in assay [2] was “binds” in each case.

B3: FLAG-tagged human FGF23 (aa 25-251) expressed in Expi293F cells (ligand)
chain: B1 chain with A172D
modifications: O-linked glycosylation (sites not given); Cys206-Cys244 disulfide bridge
notes: also called FGF23-WT; mFGF23-WT
On to B3, for which the binding result in assay [1] and in assay [2] was “binds” in each case.

B4: FLAG-tagged human FGF23 C206S/C244S/D188A mutant expressed in Expi293F cells (ligand)
chain: B1 chain with C190S, C228S
notes: also called FGF23-CS D188A
Turning to B4, in assay [1], the binding result is on record as “binds”.

B5: full length human FGF23 (aa 25-251) expressed in E. coli (ligand)
chain: YPNASPLLGSSWGGLIHLYTATARNSYHLQIHKNGHVDGAPHQTIYSALMIRSEDAGFVVITGVMSRRYLCMDFRGNIFGSHYFDPENCRFQHQTLENGYDVYHSPQYHFLVSLGAAKAAFLPGMNPPPYSQFLSRRNEIPLIHFNTPIPRQHTQSAEDDSERDPLNVLKPRARMTPAPASCSQELPSAEDNSPMASDPLGVVRGGRVNTHAGGTGPEGCRPFAKFI
As for B5, the binding entry in assay [3] is “binds”.
